According to PMC10073623:
No constants are given. Whether binding was seen depends on the method and setting. Binding seen in cells or lysates may run through a third protein. Some entries that bind do so weakly or less than the wild type.

Molecular target: Yes-associated protein1 (YAP1) (human (endogenous in AGS)), P46937
Assay: co-IP
Details: remark: other sources report otherwise

B1: TEAD3, Q99594 1-435 (protein)
chain: MASNSWNASSSPGEAREDGPEGLDKGLDNDAEGVWSPDIEQSFQEALAIYPPCGRRKIILSDEGKMYGRNELIARYIKLRTGKTRTRKQVSSHIQVLARKKVREYQVGIKAMNLDQVSKDKALQSMASMSSAQIVSASVLQNKFSPPSPLPQAVFSTSSRFWSSPPLLGQQPGPSQDIKPFAQPAYPIQPPLPPTLSSYEPLAPLPSAAASVPVWQDRTIASSRLRLLEYSAFMEVQRDPDTYSKHLFVHIGQTNPAFSDPPLEAVDVRQIYDKFPEKKGGLKELYEKGPPNAFFLVKFWADLNSTIQEGPGAFYGVSSQYSSADSMTISVSTKVCSFGKQVVEKVETEYARLENGRFVYRIHRSPMCEYMINFIHKLKHLPEKYMMNSVLENFTILQVVTSRDSQETLLVIAFVFEVSTSEHGAQHHVYKLVKD
- binding: binds
